# Measurements from the supplement of paper PMC5355238.
# Counter-ions that a name gives are not always drawn. The list shows a part of the results. Most entries show no effect beyond the scatter of the controls.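 Reh is a human leukemia cell line; the read-out is the median γH2AX antibody signal in S-phase cells by flow cytometry, with the score counting standard deviations from the median difference of each paired set of plates. Scores above 2.5 were called candidate hits, while scores below -2 mark compounds that lowered the MK1775-induced damage.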
# Test system: Reh
# Assay: Z' of S-phase gammaH2AX difference (drug + MK1775 minus drug alone) (Z-score); higher = stronger synergistic S-phase DNA damage with MK1775
# Settings: MK1775 concentration 400 nM; first compound 10 µM; 4 h
row,SMILES,Z' of S-phase gammaH2AX difference (Z-score)
1,Nc1nc(OCc2ccccc2)c2nc[nH]c2n1 [O6-benzylguanine] + C=CCn1c(=O)c2cnc(Nc3ccc(N4CCN(C)CC4)cc3)nc2n1-c1cccc(C(C)(C)O)n1 [MK1775],inactive: 0.608
2,CSc1ccc2c(c1)N(CCC1CCCCN1C)c1ccccc1S2 (stereo not given) [Thioridazine hydrochloride] + C=CCn1c(=O)c2cnc(Nc3ccc(N4CCN(C)CC4)cc3)nc2n1-c1cccc(C(C)(C)O)n1 [MK1775],inactive: -0.516
3,CC(C)(Sc1ccc(CCN(CCCCC2CCCCC2)C(=O)NC2CCCCC2)cc1)C(=O)O + C=CCn1c(=O)c2cnc(Nc3ccc(N4CCN(C)CC4)cc3)nc2n1-c1cccc(C(C)(C)O)n1 [MK1775],inactive: -0.644
4,NC1C=CC=C(C(=O)O)C1 (stereo not given) [Gabaculine hydrochloride] + C=CCn1c(=O)c2cnc(Nc3ccc(N4CCN(C)CC4)cc3)nc2n1-c1cccc(C(C)(C)O)n1 [MK1775],inactive: 0.234
5,NCCNS(=O)(=O)c1cccc2cnccc12 [H-9 dihydrochloride] + C=CCn1c(=O)c2cnc(Nc3ccc(N4CCN(C)CC4)cc3)nc2n1-c1cccc(C(C)(C)O)n1 [MK1775],inactive: -1.02
6,NC(N)=Nc1nc(CSCC/C(N)=N/S(N)(=O)=O)cs1 [Famotidine] + C=CCn1c(=O)c2cnc(Nc3ccc(N4CCN(C)CC4)cc3)nc2n1-c1cccc(C(C)(C)O)n1 [MK1775],inactive: 0.857
7,COc1ccc(-c2ccc3c(N4CCOCC4)nc(N4C[C@@H](C)O[C@@H](C)C4)nc3n2)cc1CO + C=CCn1c(=O)c2cnc(Nc3ccc(N4CCN(C)CC4)cc3)nc2n1-c1cccc(C(C)(C)O)n1 [MK1775],inactive: -0.307
8,Nc1ccc(CCNc2ncnc3c2ncn3C2OC(CO)C(O)C2O)cc1 (stereo not given) [N6-2-(4-Aminophenyl)ethyladenosine] + C=CCn1c(=O)c2cnc(Nc3ccc(N4CCN(C)CC4)cc3)nc2n1-c1cccc(C(C)(C)O)n1 [MK1775],inactive: 0.364
9,OCC1OC(n2cnc3c(NCCc4ccccc4)ncnc32)C(O)C1O (stereo not given) [N6-2-Phenylethyladenosine] + C=CCn1c(=O)c2cnc(Nc3ccc(N4CCN(C)CC4)cc3)nc2n1-c1cccc(C(C)(C)O)n1 [MK1775],inactive: 0.815
10,OC[C@H]1O[C@@H](n2cnc3c(Nc4ccccc4)ncnc32)[C@H](O)[C@@H]1O [N6-Phenyladenosine] + C=CCn1c(=O)c2cnc(Nc3ccc(N4CCN(C)CC4)cc3)nc2n1-c1cccc(C(C)(C)O)n1 [MK1775],inactive: -0.102

# Given with bars between the fields: entries from further up
row | SMILES | Z' of S-phase gammaH2AX difference (Z-score)
3 | CC(C)(Sc1ccc(CCN(CCCCC2CCCCC2)C(=O)NC2CCCCC2)cc1)C(=O)O + C=CCn1c(=O)c2cnc(Nc3ccc(N4CCN(C)CC4)cc3)nc2n1-c1cccc(C(C)(C)O)n1 [MK1775] | inactive: -0.644
7 | COc1ccc(-c2ccc3c(N4CCOCC4)nc(N4C[C@@H](C)O[C@@H](C)C4)nc3n2)cc1CO + C=CCn1c(=O)c2cnc(Nc3ccc(N4CCN(C)CC4)cc3)nc2n1-c1cccc(C(C)(C)O)n1 [MK1775] | inactive: -0.307
